{"source": "patent US20050037969A1", "binders": {"B1": {"name": "CD34 C-terminal peptide AA7L, biotinylated (peptide)", "peptide": "QATSENGHSARQHVVADTEL", "modifications": "biotin at the amino-terminus"}, "B2": {"name": "VCAM1 C-terminal peptide AA17L, biotinylated (peptide)", "peptide": "ARKANMKGSYSLVEAQKSKV", "modifications": "biotin at the amino-terminus"}, "B3": {"name": "Glycophorin C C-terminal peptide AA37L, biotinylated (peptide)", "peptide": "QGDPALQDAGDSSRKEYFI", "modifications": "biotin at the amino-terminus"}, "B4": {"name": "Spectrin (beta) C-terminal peptide AA32L, biotinylated (peptide)", "peptide": "SFPPCGHRENVPGQSLVSFV", "modifications": "biotin at the amino-terminus"}, "B5": {"name": "Clasp-4 C-terminal peptide AA3L, biotinylated (peptide)", "peptide": "CAISGTSSDRGYGSPRYAEV", "modifications": "biotin at the amino-terminus"}, "B6": {"name": "CD83 C-terminal peptide AA47L, biotinylated (peptide)", "peptide": "VTSPNKHLGLVTPHKTELV", "modifications": "biotin at the amino-terminus"}, "B7": {"name": "CD38 C-terminal peptide AA8L, biotinylated (peptide)", "peptide": "PDKFLQCVKNPEDSSCTSEI", "modifications": "chain 1: biotin at the amino-terminus"}, "B8": {"name": "LPAP C-terminal peptide AA30L, biotinylated (peptide)", "peptide": "AWDDSARAAGGQGLHVTAL", "modifications": "biotin at the amino-terminus"}, "B9": {"name": "CD3n C-terminal peptide AA4L, biotinylated (peptide)", "peptide": "SVFSIPTLWSPWPPSSSSQL", "modifications": "biotin at the amino-terminus"}, "B10": {"name": "FasL C-terminal peptide AA23L-M, biotinylated (peptide)", "peptide": "SSKSKSSEESQTFFGLYKL", "modifications": "biotin at the amino-terminus"}, "B11": {"name": "BLR-1 C-terminal peptide AA45L, biotinylated (peptide)", "peptide": "PSWRRSSLSESENATSLTTF", "modifications": "biotin at the amino-terminus"}, "B12": {"name": "CD98 C-terminal peptide AA15L, biotinylated (peptide)", "peptide": "ERLKLEPHEGLLLRFPYAA", "modifications": "chain 1: biotin at the amino-terminus"}}, "note": "These are yes or no findings as the source states them, for the method shown. A result given as binding can be weak or reduced; the word gives no strength."}
{"biological_target": "GST-NeDLG fusion protein (PDZ domains 1-2) (Mus musculus (Mouse))", "test": "A/G plate assays, Table 2 matrix"}
{"binder": "B1", "binding": "binds"}
{"binder": "B2", "binding": "binds"}
{"binder": "B3", "binding": "binds"}
{"binder": "B4", "binding": "binds"}
{"binder": "B5", "binding": "binds"}
{"binder": "B6", "binding": "binds"}
{"binder": "B7", "binding": "binds"}
{"biological_target": "GST-DLG1 fusion protein (PDZ domains 1-2) (human)", "test": "A/G plate assays, Table 2 matrix"}
{"binder": "B1", "binding": "binds"}
{"binder": "B2", "binding": "binds"}
{"binder": "B3", "binding": "binds"}
{"binder": "B4", "binding": "binds"}
{"binder": "B6", "binding": "binds"}
{"binder": "B8", "binding": "binds"}
{"biological_target": "GST-TIP-1 PDZ domain fusion protein (Homo sapiens)", "test": "A/G plate assays, Table 2 matrix"}
{"binder": "B9", "binding": "binds"}
{"biological_target": "GST-LDP (Lim domain protein clp-36) PDZ domain fusion protein", "test": "A/G plate assays, Table 2 matrix"}
{"binder": "B2", "binding": "binds"}
{"binder": "B5", "binding": "binds"}
{"binder": "B7", "binding": "binds"}
{"biological_target": "GST-KIAA0561 PDZ domain fusion protein (human)", "test": "A/G plate assays, Table 2 matrix"}
{"binder": "B10", "binding": "binds"}
{"binder": "B11", "binding": "binds"}
{"biological_target": "GST-WWP3 (MAGI-1) fusion protein (PDZ domains 1-2) (Homo sapiens)", "test": "A/G plate assays, Table 2 matrix"}
{"binder": "B2", "binding": "binds"}
{"binder": "B4", "binding": "binds"}
{"biological_target": "GST-MPP2 PDZ domain fusion protein (Homo sapiens)", "test": "A/G plate assays, Table 2 matrix"}
{"binder": "B12", "binding": "binds"}
{"binder": "B3", "binding": "binds"}
{"biological_target": "GST-NeDLG fusion protein (PDZ domains 1-2) (Mus musculus (Mouse))", "test": "A/G assays, told in text"}
{"binder": "B1", "binding": "binds"}
{"binder": "B2", "binding": "binds"}
{"binder": "B3", "binding": "binds"}
{"binder": "B5", "binding": "binds"}
{"binder": "B6", "binding": "binds"}
{"biological_target": "GST-DLG1 fusion protein (PDZ domains 1-2) (human)", "test": "A/G assays, told in text"}
{"binder": "B1", "binding": "binds"}
{"binder": "B2", "binding": "binds"}
{"binder": "B3", "binding": "binds"}
{"binder": "B6", "binding": "binds"}
{"binder": "B8", "binding": "binds"}
{"biological_target": "GST-TIP-1 PDZ domain fusion protein (Homo sapiens)", "test": "A/G assays, told in text"}
{"binder": "B9", "binding": "binds"}
{"biological_target": "GST-LDP (Lim domain protein clp-36) PDZ domain fusion protein", "test": "A/G assays, told in text"}
{"binder": "B2", "binding": "binds"}
{"binder": "B5", "binding": "binds"}
{"biological_target": "GST-KIAA0561 PDZ domain fusion protein (human)", "test": "A/G assays, told in text"}
{"binder": "B10", "binding": "binds"}
{"binder": "B11", "binding": "binds"}
{"biological_target": "GST-WWP3 (MAGI-1) fusion protein (PDZ domains 1-2) (Homo sapiens)", "test": "A/G assays, told in text"}
{"binder": "B2", "binding": "binds"}
{"biological_target": "GST-MPP2 PDZ domain fusion protein (Homo sapiens)", "test": "A/G assays, told in text"}
{"binder": "B12", "binding": "binds"}
{"binder": "B3", "binding": "binds"}
